Assay in all cases: log2 fold change, soluble protein after heating vs DMSO (PISA); higher = thermal stabilisation; K562 lysate, 10 uM; active = over 0.2 and 3.5 SD of the protein, either way, in both replicates (recomputed)
Compound in one experiment: CS(=O)(=O)CCNCc1ccc(-c2ccc3ncnc(Nc4ccc(OCc5cccc(F)c5)c(Cl)c4)c3c2)o1 [lapatinib]
An outline of the steps:
(§1)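 K562 pellets were dounce-homogenised in PBS pH 7.4 with 1 mM MgCl2, and the crude extract at 1 mg/mL protein was treated with 10 μM compound for 30 min. Aliquots were heated for 3 min across 48°C-58°C, pooled, and brought to 0.5% NP-40 at 4°C; soluble protein was the supernatant after 21,000xg for 90 min. Soluble protein was quantified by TMTpro 16plex LC-MS/MS with channel sums equalised, and reported as log2 fold change in thermal stability against DMSO controls, with values from duplicates.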

By UniProt entry, the sequences of proteins in these tests, tags left out. Where a name states a change or a piece, a line headed by the entry shows the natural chain unless it says otherwise.
UniProt A2RUC4: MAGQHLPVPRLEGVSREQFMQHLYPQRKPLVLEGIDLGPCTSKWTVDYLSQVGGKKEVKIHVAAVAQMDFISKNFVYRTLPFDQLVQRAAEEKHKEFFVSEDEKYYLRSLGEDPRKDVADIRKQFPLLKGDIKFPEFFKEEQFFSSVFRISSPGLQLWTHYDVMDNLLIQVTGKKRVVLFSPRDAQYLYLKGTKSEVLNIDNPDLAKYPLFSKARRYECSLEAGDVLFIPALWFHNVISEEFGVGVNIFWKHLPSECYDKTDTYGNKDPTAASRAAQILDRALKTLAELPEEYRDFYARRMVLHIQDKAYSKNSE
UniProt Q9NPD8: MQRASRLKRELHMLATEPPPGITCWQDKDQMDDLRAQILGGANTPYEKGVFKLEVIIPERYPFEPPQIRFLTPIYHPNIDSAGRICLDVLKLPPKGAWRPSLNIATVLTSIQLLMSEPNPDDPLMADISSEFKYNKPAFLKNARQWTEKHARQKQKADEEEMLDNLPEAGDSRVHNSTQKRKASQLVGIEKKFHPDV
UniProt A6NHL2: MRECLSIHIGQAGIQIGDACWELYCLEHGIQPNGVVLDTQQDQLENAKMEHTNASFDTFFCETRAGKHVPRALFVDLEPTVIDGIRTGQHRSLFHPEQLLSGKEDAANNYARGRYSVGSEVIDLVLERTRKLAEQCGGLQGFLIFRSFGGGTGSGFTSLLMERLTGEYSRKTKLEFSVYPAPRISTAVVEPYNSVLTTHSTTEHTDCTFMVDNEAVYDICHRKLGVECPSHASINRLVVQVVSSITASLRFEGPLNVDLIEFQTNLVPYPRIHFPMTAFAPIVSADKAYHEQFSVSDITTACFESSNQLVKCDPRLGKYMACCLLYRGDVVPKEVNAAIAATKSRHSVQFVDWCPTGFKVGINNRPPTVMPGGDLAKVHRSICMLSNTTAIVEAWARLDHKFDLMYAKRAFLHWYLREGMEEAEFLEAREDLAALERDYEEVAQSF
UniProt Q9NPG3, whole entry, looked up: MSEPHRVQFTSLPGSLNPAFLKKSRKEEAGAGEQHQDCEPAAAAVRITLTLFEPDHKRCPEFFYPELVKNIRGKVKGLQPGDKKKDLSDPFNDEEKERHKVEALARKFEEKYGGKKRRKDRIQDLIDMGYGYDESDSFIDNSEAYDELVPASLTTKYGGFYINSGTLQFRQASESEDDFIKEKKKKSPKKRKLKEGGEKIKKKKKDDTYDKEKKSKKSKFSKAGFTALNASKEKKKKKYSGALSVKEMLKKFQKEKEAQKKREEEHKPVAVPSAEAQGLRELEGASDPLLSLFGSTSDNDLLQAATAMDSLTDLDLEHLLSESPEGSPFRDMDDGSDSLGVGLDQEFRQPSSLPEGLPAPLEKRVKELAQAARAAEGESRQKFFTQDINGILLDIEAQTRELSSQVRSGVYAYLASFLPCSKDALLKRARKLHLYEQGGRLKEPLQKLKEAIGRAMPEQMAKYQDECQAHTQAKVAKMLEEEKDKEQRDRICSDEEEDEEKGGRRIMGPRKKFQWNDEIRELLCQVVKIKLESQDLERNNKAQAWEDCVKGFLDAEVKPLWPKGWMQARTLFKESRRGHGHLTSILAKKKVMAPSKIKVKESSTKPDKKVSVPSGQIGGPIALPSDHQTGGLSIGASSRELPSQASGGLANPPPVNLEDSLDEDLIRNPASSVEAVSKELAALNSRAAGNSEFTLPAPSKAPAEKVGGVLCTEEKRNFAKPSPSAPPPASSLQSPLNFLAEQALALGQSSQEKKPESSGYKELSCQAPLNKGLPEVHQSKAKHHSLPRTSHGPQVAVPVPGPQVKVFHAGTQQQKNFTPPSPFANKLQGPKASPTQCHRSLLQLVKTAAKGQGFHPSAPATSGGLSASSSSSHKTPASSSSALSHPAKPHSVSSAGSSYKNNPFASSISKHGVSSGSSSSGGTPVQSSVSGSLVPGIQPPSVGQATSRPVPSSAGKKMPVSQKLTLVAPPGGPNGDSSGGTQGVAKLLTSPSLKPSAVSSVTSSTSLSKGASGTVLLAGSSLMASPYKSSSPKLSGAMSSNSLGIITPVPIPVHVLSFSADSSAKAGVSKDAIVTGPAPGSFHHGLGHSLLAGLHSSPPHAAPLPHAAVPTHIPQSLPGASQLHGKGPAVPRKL
UniProt Q9BUF5, whole entry, looked up: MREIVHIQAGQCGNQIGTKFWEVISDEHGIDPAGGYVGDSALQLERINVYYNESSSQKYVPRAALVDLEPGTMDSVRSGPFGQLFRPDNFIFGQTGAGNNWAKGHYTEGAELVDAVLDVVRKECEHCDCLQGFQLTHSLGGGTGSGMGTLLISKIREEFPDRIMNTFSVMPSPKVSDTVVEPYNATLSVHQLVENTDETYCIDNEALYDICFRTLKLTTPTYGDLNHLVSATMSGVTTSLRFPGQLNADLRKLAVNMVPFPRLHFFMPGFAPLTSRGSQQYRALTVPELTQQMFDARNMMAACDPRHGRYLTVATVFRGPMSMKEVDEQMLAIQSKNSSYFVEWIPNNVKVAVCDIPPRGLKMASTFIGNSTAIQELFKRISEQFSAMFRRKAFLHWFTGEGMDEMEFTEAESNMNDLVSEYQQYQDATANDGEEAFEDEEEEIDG
UniProt Q8WVN8: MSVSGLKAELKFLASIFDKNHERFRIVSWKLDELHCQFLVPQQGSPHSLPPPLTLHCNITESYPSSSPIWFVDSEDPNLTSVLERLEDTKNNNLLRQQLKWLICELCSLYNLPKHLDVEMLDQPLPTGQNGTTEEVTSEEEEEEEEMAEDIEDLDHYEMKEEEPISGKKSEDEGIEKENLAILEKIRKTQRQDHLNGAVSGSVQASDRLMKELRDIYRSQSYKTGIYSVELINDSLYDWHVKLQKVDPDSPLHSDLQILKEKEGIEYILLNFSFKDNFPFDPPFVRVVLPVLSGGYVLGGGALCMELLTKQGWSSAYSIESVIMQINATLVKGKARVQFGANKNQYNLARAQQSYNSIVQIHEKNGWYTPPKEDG

Compound in the next experiment: CS(=O)(=O)N1CCN(Cc2cc3nc(-c4cccc5[nH]ncc45)nc(N4CCOCC4)c3s2)CC1 [pictilisib]
The gist of the method: as §1

Compound in the next experiment: C[C@@H](Oc1cc(-c2cnn(C3CCNCC3)c2)cnc1N)c1c(Cl)ccc(F)c1Cl [crizotinib]
The gist of the method:
as §1

Compound in experiment [1]: C[C@H](C1=CC=C(C=C1)C(=O)NC2=C3C=CNC3=NC=C2)N
An outline of the steps:
as §1

Compound in another experiment: Cc1cc(Nc2cc(CN3CCOCC3)c3nc(C)c(Cc4ccc(Cl)cc4F)n3n2)n[nH]1 [gandotinib]
The gist of the method:
as §1

Compound in the next experiment: Cc1cc(Nc2cc(N3CCN(C)CC3)nc(Sc3ccc(NC(=O)C4CC4)cc3)n2)n[nH]1 [tozasertib]
An outline of the steps: as §1

Compound in the next experiment: Cc1ccc(-n2nc(C(C)(C)C)cc2NC(=O)Nc2ccc(OCCN3CCOCC3)c3ccccc23)cc1 [doramapimod]
The gist of the method: as §1

Compound in the next experiment: Cc1ccc(NC(=O)c2ccc(CN3CC[C@H](N(C)C)C3)c(C(F)(F)F)c2)cc1Nc1nccc(-c2cncnc2)n1 [bafetinib]
An outline of the steps:
as §1

Compound in experiment [2]: Cc1cccc(CC(=O)N2CCc3c2ccc(-c2cn(C)c4ncnc(N)c24)c3F)n1
The gist of the method: as §1

Compound in another experiment: Cc1cn(-c2cc(NC(=O)c3ccc(C)c(Nc4nccc(-c5cccnc5)n4)c3)cc(C(F)(F)F)c2)cn1 [nilotinib]
An outline of the steps: as §1

Compound in experiment [3]: Cc1nc(Nc2n[nH]c3c2CN(C(=O)N[C@H](CN(C)C)c2ccccc2)C3(C)C)c2sccc2n1
An outline of the steps: as §1

Compound in experiment [4]: Cc1ncc(-c2ccnc(Nc3ccc(S(C)(=O)=O)cc3)n2)n1C(C)C
The gist of the method:
as §1

Compound in a further experiment: Cn1cc(CNCC2CCN(c3ncc(C(=O)NO)cn3)CC2)c2ccccc21 [quisinostat]
The gist of the method:
as §1

Compound in another experiment: Cn1cncc1[C@@](N)(c1ccc(Cl)cc1)c1ccc2c(c1)c(-c1cccc(Cl)c1)cc(=O)n2C [tipifarnib]
The gist of the method: as §1

Compound in experiment [5]: NC(=O)Nc1cc(-c2cccc(F)c2)sc1C(=O)N[C@H]1CCCNC1
The gist of the method: as §1

Compound in experiment [6]: NC(=O)c1cnc(N[C@@H]2CCCC[C@@H]2N)nc1Nc1cccc(-n2nccn2)c1
The gist of the method: as §1

Compound in experiment [7]: NC1(c2ccc(-c3nc4ccn5c(=O)[nH]nc5c4cc3-c3ccccc3)cc2)CCC1
The gist of the method: as §1

Compound in another experiment: C[C@H](Nc1ncnc2nc[nH]c12)c1cc2cccc(Cl)c2c(=O)n1-c1ccccc1 [duvelisib]
An outline of the steps: as §1

Compound in the next experiment: Cc1nc(Nc2ncc(C(=O)Nc3c(C)cccc3Cl)s2)cc(N2CCN(CCO)CC2)n1 [dasatinib]
An outline of the steps:
as §1

Compound in experiment [8]: Cn1cc(-c2ccc3c(c2)CCN3C(=O)Cc2cccc(C(F)(F)F)c2)c2c(N)ncnc21
The gist of the method: as §1

Some of the results follow.

As to TYW5 (UniProt A2RUC4), the log2 fold change was inactive: 0.034 with lapatinib; inactive: -0.059 in the experiment with pictilisib; inactive: 0.02 with crizotinib; inactive: 0.024 in experiment [1]; inactive: -0.091 with gandotinib; inactive: -0.005 with tozasertib. Further, the log2 fold change is inactive: -0.047 with doramapimod; inactive: 0.034 with bafetinib; inactive: 0.062 in [2]; inactive: -0.026 with nilotinib; inactive: 0.063 in experiment [3]; inactive: -0.106 in [4]. Further, the log2 fold change is inactive: 0.242 in the experiment with quisinostat; inactive: -0.106 in the experiment with tipifarnib; inactive: 0.073 in experiment [5]; inactive: -0.064 in experiment [6]; inactive: 0.125 in [7].

For the target UBE2T (UniProt Q9NPD8), the log2 fold change in the experiment with lapatinib is inactive: -0.041; in the experiment with pictilisib it was inactive: -0.042; with crizotinib it was inactive: -0.015; in experiment [1] it was inactive: -0.086; with duvelisib, inactive: -0.037; in the experiment with gandotinib, inactive: 0.017. Also, the log2 fold change is inactive: 0.019 with tozasertib; inactive: 0.024 with doramapimod; inactive: -0.05 with bafetinib; inactive: 0.011 in [2]; inactive: 0.003 with nilotinib; inactive: -0.006 in experiment [3]. Also, the log2 fold change in the experiment with dasatinib was inactive: -0.027; in experiment [4] it was inactive: 0.01; in experiment [8], inactive: -0.016; with quisinostat, inactive: -0.025; with tipifarnib it was inactive: 0.015; in experiment [5], inactive: -0.015. The log2 fold change in experiment [6] was inactive: 0.027; in experiment [7] it was inactive: 0.033.

As to TUBAL3 (UniProt A6NHL2), the log2 fold change with lapatinib was inactive: -0.07; with pictilisib, inactive: -0.034; in experiment [1] it was inactive: -0.434; in the experiment with duvelisib, inactive: -0.001; with gandotinib it was inactive: 0.312; in the experiment with tozasertib it was inactive: 0.09. Also, the log2 fold change with bafetinib was inactive: -0.232; in [2] it was active: 0.567; with nilotinib, inactive: 0.068; in experiment [3], inactive: -0.189; with dasatinib it was inactive: -0.074; in [4], inactive: 0.103. For the same target, the log2 fold change in experiment [8] is inactive: 0.082; with tipifarnib it was inactive: 0.141; in [6], inactive: -0.025; in experiment [7], inactive: -0.142.

Take UBN1 (UniProt Q9NPG3): the log2 fold change with lapatinib is inactive: -0.187; with crizotinib, inactive: -0.042; in experiment [1], inactive: -0.057; with duvelisib, inactive: -0.092; in the experiment with gandotinib it was inactive: 0.215; with tozasertib it was inactive: 0.069. In addition, the log2 fold change with doramapimod is inactive: -0.256; in [2], inactive: 0.308; in the experiment with dasatinib it was inactive: 0.208; in [8], inactive: 0.055; with quisinostat, inactive: 0.114; in [5] it was inactive: -0.053. In addition, the log2 fold change in experiment [6] was inactive: 0.001.

As to TUBB6 (UniProt Q9BUF5), the log2 fold change was inactive: -0.038 with lapatinib; inactive: -0.015 with pictilisib; inactive: -0.056 with crizotinib; inactive: 0.003 in experiment [1]; inactive: 0.009 in the experiment with duvelisib; inactive: -0.009 with gandotinib. The log2 fold change with tozasertib was inactive: -0.02; in the experiment with doramapimod it was inactive: -0.047; in the experiment with bafetinib, inactive: -0.023; in experiment [2], inactive: -0.018; with nilotinib it was inactive: -0.002; in experiment [3] it was inactive: -0.023. The log2 fold change is inactive: -0.031 in the experiment with dasatinib; inactive: 0.006 in [4]; inactive: -0.006 in [8]; inactive: -0.028 with quisinostat; inactive: 0.021 with tipifarnib; inactive: 0.022 in experiment [5]. The log2 fold change is inactive: -0.001 in [6] and inactive: 0.004 in experiment [7].

Turning to UBAP2L (UniProt F8W726), the log2 fold change was inactive: -0.15 with lapatinib; inactive: 0.098 in the experiment with crizotinib; inactive: -0.068 in the experiment with doramapimod; inactive: 0.11 in the experiment with quisinostat; inactive: 0.043 in experiment [5]; inactive: 0.099 in experiment [6].

On to UBE2I (UniProt H3BQQ9), for which the log2 fold change with lapatinib was inactive: -0.011; with pictilisib, inactive: 0.012; in the experiment with crizotinib it was inactive: -0.183; in [1] it was inactive: -0.271; with duvelisib it was inactive: 0.074; with gandotinib, inactive: 0.127. Also, the log2 fold change was inactive: 0.152 in the experiment with doramapimod; inactive: -0.278 with bafetinib; inactive: 0.077 in experiment [2]; inactive: -0.005 with dasatinib; inactive: 0.041 in experiment [8]; inactive: -0.232 in the experiment with quisinostat. Moreover, the log2 fold change is inactive: -0.066 in experiment [5] and inactive: 0.194 in [6].

On to UBE2Q2 (UniProt Q8WVN8), for which the log2 fold change with lapatinib was inactive: -0.04; with pictilisib, inactive: -0.032; in experiment [1] it was inactive: -0.028; in the experiment with duvelisib, inactive: -0.027; with gandotinib, inactive: -0.021; with tozasertib, inactive: -0.043. Also, the log2 fold change with bafetinib is inactive: -0.019; in [2] it was inactive: -0.043; with nilotinib, inactive: -0.065; in experiment [3] it was inactive: -0.057; with dasatinib, inactive: 0.076; in experiment [4], inactive: -0.14. In addition, the log2 fold change in experiment [8] was inactive: -0.013; in the experiment with tipifarnib it was inactive: 0.079; in [6], inactive: -0.091; in experiment [7], inactive: 0.097.
